Drawing on PMC8766426, this text covers binding for 1 molecule.

By UniProt entry, the sequences of proteins in these tests, tags left out. Residues count along the entry.
UniProt Q3UH93, residues 49-1925: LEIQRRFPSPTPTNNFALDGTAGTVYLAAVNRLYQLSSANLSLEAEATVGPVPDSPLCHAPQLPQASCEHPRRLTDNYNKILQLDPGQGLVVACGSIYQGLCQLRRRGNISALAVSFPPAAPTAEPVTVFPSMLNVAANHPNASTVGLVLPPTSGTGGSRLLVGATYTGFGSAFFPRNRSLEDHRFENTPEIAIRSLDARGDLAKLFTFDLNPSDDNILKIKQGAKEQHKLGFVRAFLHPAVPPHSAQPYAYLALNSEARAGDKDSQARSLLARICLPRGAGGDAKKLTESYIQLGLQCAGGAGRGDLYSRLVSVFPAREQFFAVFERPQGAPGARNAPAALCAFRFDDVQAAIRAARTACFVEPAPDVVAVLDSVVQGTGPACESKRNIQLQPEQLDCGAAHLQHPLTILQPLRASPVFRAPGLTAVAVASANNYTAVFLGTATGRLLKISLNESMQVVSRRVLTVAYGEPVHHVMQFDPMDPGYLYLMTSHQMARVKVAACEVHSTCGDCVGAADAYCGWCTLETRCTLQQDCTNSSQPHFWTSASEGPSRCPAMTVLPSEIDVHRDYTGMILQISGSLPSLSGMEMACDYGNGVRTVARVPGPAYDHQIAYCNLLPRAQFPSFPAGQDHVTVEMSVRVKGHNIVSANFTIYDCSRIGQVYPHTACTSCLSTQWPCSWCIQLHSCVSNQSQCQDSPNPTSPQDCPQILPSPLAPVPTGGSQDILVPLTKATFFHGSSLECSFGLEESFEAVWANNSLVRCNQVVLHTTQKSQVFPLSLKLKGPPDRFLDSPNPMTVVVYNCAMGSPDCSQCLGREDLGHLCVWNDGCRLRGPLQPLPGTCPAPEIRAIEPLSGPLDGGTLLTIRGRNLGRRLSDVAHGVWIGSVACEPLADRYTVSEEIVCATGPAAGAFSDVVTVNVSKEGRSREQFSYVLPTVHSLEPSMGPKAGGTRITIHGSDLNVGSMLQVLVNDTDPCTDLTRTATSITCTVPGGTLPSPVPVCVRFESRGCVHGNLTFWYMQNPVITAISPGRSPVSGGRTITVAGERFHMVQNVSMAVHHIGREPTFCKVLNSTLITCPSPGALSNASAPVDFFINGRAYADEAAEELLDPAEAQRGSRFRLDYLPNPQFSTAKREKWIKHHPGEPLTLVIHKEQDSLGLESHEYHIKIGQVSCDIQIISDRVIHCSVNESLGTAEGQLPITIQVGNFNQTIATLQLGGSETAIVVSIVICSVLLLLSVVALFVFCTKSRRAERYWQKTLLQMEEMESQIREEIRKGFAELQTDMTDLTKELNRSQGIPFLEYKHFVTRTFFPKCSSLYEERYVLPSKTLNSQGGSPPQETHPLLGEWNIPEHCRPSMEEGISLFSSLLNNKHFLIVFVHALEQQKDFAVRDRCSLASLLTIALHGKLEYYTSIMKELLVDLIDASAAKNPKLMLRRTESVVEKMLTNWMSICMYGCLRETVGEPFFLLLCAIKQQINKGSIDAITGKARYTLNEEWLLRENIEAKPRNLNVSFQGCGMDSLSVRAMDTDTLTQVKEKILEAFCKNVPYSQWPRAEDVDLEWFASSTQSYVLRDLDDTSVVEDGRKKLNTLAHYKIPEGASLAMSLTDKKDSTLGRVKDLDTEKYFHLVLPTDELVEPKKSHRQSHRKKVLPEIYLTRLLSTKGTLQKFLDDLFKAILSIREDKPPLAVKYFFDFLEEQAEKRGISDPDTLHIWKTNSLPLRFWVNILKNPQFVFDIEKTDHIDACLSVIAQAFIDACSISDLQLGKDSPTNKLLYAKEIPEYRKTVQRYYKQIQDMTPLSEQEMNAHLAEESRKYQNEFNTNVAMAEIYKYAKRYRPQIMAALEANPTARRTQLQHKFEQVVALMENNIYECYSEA

This assay addresses Plexin-D1 (mouse (endogenous in brain sections)) (UniProt Q3UH93). As to the kind of experiment: alkaline phosphatase-ligand binding on tissue sections; 20-um mouse brain cryosections fixed in cold methanol; 2 nM AP-Sema3E in 1x PBS-MgCl2 plus 20 mM HEPES pH 7.0, 2 h at room temperature; heat inactivation at 65 C; AP developed with NBT/BCIP; sections of sham, post-tMCAo and Plxnd1 iECKO mice.

Results are given in words; binding and its absence hold for the method and conditions named. Some binding calls cover weakened binding; strength is not graded here.

B1: AP-conjugated Sema3E ligand (alkaline phosphatase-Semaphorin 3E) (ligand, UniProt P70275 26-775)
chain: ANPSYPRLRLSHKELLELNRTSIFQSPLGFLDLHTMLLDEYQERLFVGGRDLVYSLNLERVSDGYREIYWPSTAVKVEECIMKGKDANECANYIRVLHHYNRTHLLTCATGAFDPHCAFIRVGHHSEEPLFHLESHRSERGRGRCPFDPNSSFVSTLVGNELFAGLYSDYWGRDSAIFRSMGKLGHIRTEHDDERLLKEPKFVGSYMIPDNEDRDDNKMYFFFTEKALEAENNAHTIYTRVGRLCVNDMGGQRILVNKWSTFLKARLVCSVPGMNGIDTYFDELEDVFLLPTRDPKNPVIFGLFNTTSNIFRGHAVCVYHMSSIREAFNGPYAHKEGPEYHWSLYEGKVPYPRPGSCASKVNGGKYGTTKDYPDDAIRFARMHPLMYQPIKPVHKKPILVKTDGKYNLRQLAVDRVEAEDGQYDVLFIGTDTGIVLKVITIYNQETEWMEEVILEELQIFKDPAPIISMEISSKRQQLYIGSASAVAQVRFHHCDMYGSACADCCLARDPYCAWDGISCSRYYPTGAHAKRRFRRQDVRHGNAAQQCFGQQFVGDALDRTEERLAYGIESNSTLLECTPRSLQAKVIWFVQKGRDVRKEEVKTDDRVVKMDLGLLFLRVRKSDAGTYFCQTVEHNFVHTVRKITLEVVEEHKVEGMFHKDHEEERHHKMPCPPLSGMSQGTKPWYKEFLQLIGYSNFQRVEEYCEKVWCTDKKRKKLKMSPSKWKYANPQEKRLRSKAEHFRLPRHTLLS
Turning to B1, the binding result is “binds”.
